“And” between values parts separate entries of the source, which are not always exact repeats. Equal values may be shown once.
Assay: general procedure: Fmoc solid-phase peptide synthesis; HMPB-PEGA resin (from amino-PEGA resin); trityl chloride resin; MSNT/N-methylimidazole (first residue); PyBOP/DIPEA (thioesterification)
Settings: late stage modification step

Substance: AcNH-His-Ala-Ala-Phe-COSBn
- step yield (run 1): 75% and 98%
- step yield (run 2): 10%
